For this assay, the target named is DLL3 purified protein (human) (UniProt Q9NYJ7). Kind of assay: ELISA, plate coated with 1 ug/ml purified DLL3, serially diluted antibody, detection with HRP-conjugated anti-human IgG1 reporter mAb, TMB, OD450. For orientation: ELISA stands for enzyme-linked immunosorbent assay.

The chains behind the UniProt entries cited, without tags or fusion partners. Residues count along the entry.
UniProt Q9NYJ7, residues 27-492: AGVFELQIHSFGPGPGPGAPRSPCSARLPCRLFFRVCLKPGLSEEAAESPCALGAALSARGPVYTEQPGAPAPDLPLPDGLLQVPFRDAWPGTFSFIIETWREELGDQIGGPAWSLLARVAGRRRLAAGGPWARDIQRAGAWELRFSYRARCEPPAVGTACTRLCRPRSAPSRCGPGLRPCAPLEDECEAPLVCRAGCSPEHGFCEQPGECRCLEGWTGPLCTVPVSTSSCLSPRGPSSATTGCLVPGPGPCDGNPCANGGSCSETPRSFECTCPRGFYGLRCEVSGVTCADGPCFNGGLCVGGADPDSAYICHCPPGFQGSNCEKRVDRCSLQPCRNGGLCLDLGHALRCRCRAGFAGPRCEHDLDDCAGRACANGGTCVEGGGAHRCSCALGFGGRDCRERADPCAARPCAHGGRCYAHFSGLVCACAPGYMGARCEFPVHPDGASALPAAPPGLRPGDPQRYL

These are yes or no findings as the source states them, for the method shown. Some entries that bind do so weakly or less than the wild type.

B1: hSC16.56 (antibody, human IgG1, kappa, V domains shown)
VH: QVQLVQSGAEVKKPGASVKVSCKASGYTFTNYGMNWVRQAPGQGLEWMGWINTYTGEPTYADDFKGRVTMTTDTSTSTAYMELRSLRSDDTAVYYCARIGDSSPSDYWGQGTLVTVSS
VL: EIVMTQSPATLSVSPGERATLSCKASQSVSNDVVWYQQKPGQAPRLLIYYASNRYTGIPARFSGSGSGTEFTLTISSLQSEDFAVYYCQQDYTSPWTFGQGTKLEIKR
notes: Native human IgG1/kappa; also called humanized SC16.56; humanized anti-DLL3 antibody hSC16.56
Take B1: the binding entry was “binds”.

(Values after patent US20180346565A1 (AbbVie / Abbott, published 2018).)
